Measured values published in publication PMC7862700.
The list shows a part of the results, in another mix than the full data. For part of these data: At the low end of the ranking the order means little. Some of the results follow. For part of these data: Construct or isoform of the protein are uncertain.

Protein sequences, listed by entry. Tags and fused reporters are not part of them. Lines headed by an entry give the natural chain unless they say otherwise; changes in a name come on top.
UniProt P32519: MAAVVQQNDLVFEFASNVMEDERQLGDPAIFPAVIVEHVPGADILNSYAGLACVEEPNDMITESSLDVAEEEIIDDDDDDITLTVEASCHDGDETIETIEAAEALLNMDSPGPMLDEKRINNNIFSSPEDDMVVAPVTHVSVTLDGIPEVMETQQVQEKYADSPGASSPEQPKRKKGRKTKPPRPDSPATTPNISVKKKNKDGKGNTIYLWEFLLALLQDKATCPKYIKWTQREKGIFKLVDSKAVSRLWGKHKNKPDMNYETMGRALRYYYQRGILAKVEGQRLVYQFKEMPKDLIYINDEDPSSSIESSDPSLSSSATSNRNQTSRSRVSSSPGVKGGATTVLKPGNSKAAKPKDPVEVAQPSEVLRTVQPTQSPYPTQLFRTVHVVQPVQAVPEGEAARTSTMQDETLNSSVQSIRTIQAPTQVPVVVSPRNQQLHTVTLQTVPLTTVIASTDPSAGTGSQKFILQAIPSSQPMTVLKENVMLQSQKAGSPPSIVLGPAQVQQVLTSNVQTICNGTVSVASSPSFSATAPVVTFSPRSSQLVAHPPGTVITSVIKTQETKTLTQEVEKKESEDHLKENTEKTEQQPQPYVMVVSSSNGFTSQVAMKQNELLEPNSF
UniProt P50549: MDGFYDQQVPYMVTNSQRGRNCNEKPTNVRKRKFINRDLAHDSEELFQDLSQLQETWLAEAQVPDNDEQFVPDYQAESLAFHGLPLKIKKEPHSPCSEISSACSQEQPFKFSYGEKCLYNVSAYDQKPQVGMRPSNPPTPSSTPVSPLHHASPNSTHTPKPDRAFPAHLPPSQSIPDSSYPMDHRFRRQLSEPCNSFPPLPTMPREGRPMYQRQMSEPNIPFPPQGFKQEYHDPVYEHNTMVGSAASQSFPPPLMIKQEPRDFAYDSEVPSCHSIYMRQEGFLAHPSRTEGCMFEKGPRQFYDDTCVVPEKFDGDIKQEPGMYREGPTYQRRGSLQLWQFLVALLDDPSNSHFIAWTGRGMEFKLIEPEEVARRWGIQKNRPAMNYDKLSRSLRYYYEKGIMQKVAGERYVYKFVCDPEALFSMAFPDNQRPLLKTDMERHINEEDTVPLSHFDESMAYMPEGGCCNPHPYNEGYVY

Experiments:
Assay in all cases: DAPPL (digital affinity profiling via proximity ligation, sequencing)
Conditions in all cases: 10 mM Tris-HCl pH 7.5, 50 mM NaCl, 1 mM DTT, 4% glycerol, room temperature, 30 min; GST-TFs on glutathione beads, 16-mer random dsDNA library, 0.1% …; high values mean tight binding; double strand, one strand shown; scale: fold enrichment (6-mer frequency, TF over GST control)
ERG = target: T1, ERG (UniProt P11308)
T1 sequence: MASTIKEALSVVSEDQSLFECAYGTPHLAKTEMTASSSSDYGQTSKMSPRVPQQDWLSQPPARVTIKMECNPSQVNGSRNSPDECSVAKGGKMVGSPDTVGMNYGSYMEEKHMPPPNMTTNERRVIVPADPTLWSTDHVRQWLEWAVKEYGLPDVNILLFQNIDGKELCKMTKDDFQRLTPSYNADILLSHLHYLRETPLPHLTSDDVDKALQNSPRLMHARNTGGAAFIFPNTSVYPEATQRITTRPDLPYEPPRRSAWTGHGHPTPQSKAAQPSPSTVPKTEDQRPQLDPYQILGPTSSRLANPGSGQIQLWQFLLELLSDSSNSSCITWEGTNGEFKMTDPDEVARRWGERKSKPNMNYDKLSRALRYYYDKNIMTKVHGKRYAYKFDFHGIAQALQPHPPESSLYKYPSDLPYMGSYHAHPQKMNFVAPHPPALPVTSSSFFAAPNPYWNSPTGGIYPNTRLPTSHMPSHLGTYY

ELF1 = ELF1 (UniProt P32519)
ELK4 = target: T2, ELK4 (UniProt P28324-2)
T2 sequence: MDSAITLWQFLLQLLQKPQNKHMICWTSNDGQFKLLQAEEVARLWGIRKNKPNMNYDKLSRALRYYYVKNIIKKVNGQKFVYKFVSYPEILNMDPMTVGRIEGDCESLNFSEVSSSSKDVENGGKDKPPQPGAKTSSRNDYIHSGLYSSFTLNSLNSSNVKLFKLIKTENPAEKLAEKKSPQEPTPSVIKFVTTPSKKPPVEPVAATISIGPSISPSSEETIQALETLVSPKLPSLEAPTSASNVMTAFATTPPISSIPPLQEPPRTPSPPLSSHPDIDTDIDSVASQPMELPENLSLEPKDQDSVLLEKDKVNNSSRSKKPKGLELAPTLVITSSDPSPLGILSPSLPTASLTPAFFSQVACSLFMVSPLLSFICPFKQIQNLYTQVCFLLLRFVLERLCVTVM

ETV4 = target: T3, ETV4 (UniProt P43268)
T3 sequence: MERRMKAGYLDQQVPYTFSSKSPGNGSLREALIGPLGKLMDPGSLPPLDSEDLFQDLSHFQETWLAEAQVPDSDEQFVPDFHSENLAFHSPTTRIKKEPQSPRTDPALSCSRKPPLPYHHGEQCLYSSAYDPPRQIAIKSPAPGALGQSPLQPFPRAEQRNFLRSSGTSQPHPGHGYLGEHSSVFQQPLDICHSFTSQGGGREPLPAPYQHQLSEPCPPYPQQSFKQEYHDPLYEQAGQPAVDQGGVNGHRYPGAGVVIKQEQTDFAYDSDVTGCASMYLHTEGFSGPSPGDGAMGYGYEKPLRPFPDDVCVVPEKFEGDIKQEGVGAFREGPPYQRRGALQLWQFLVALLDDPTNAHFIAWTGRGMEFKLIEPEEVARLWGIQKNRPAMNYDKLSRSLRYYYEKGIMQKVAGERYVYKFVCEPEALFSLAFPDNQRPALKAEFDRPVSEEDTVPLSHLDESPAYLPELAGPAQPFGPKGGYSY

ETV1 = ETV1 (UniProt P50549)
ERF = target: T4, ERF (UniProt P50548)
T4 sequence: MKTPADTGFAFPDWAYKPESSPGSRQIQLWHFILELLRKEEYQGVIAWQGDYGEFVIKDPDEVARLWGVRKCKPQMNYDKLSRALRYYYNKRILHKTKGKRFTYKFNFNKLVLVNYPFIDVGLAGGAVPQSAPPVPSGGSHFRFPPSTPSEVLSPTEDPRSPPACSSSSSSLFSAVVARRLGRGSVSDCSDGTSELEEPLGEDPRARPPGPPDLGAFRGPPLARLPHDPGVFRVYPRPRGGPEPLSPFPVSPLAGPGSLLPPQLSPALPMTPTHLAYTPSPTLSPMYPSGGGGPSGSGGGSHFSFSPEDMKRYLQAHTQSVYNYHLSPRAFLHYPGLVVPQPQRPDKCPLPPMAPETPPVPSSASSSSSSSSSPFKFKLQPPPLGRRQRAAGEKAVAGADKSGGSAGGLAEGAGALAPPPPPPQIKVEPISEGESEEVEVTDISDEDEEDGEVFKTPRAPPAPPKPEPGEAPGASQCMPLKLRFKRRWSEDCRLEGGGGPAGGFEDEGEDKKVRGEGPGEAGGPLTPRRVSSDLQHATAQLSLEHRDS

Row | Sequence | binding signal (ERG) | binding signal (ELF1) | binding signal (ELK4) | binding signal (ETV4) | binding signal (ETV1) | binding signal (ERF)
1 | GCGGTA | 0.755 | 0.714 | 0.699 | 0.732 | 0.754 | 0.698
2 | ACAGAC | 0.834 | 0.79 | 0.918 | 0.854 | 0.848 | 0.782
3 | AGCGGG | 0.467 | 0.461 | 0.538 | 0.453 | 0.455 | 0.464
4 | ACGTGG | 0.587 | 0.585 | 0.678 | 0.567 | 0.594 | 0.665
5 | AGTTCG | 0.714 | 0.758 | 0.739 | 0.799 | 0.714 | 0.822
6 | GTGGGT | 0.471 | 0.492 | 0.433 | 0.463 | 0.446 | 0.536
7 | TGAGCG | 0.634 | 0.642 | 0.769 | 0.647 | 0.623 | 0.662
8 | GGCGCC | 0.72 | 0.72 | 0.834 | 0.786 | 0.711 | 0.711
9 | GGTAGC | 0.765 | 0.816 | 0.809 | 0.895 | 0.842 | 0.822
10 | CTGAGA | 0.802 | 0.877 | 0.86 | 0.753 | 0.736 | 0.759
11 | GGGGCG | 0.639 | 0.649 | 0.593 | 0.637 | 0.634 | 0.67
12 | GGTGAG | 0.34 | 0.379 | 0.436 | 0.337 | 0.338 | 0.385
13 | AGTTCA | 0.908 | 0.906 | 0.991 | 0.917 | 0.926 | 0.861
14 | GTGTCG | 0.625 | 0.622 | 0.642 | 0.571 | 0.625 | 0.571
15 | GGAGGA | 0.28 | 0.238 | 0.202 | 0.245 | 0.262 | 0.265
16 | GTCTGA | 0.742 | 0.815 | 0.687 | 0.829 | 0.68 | 0.847
17 | AGGCAT | 0.82 | 0.775 | 0.926 | 0.817 | 0.826 | 0.809
18 | GTGATT | 0.754 | 0.703 | 0.752 | 0.749 | 0.789 | 0.765
19 | CAGGTA | 0.818 | 0.725 | 0.809 | 0.77 | 0.827 | 0.869
20 | ATCGGA | 0.439 | 0.425 | 0.438 | 0.412 | 0.421 | 0.45
21 | GGGAGT | 0.26 | 0.228 | 0.217 | 0.218 | 0.252 | 0.24
22 | CAGCTG | 0.877 | 0.861 | 0.883 | 0.881 | 0.887 | 0.799
23 | AGAGGC | 0.735 | 0.664 | 0.756 | 0.678 | 0.722 | 0.735

A second format for part of the listing above:

| Row | Sequence | binding signal (ERG) | binding signal (ELF1) | binding signal (ELK4) | binding signal (ETV4) | binding signal (ETV1) | binding signal (ERF) |
| --- | --- | --- | --- | --- | --- | --- | --- |
| 5 | AGTTCG | 0.714 | 0.758 | 0.739 | 0.799 | 0.714 | 0.822 |
| 7 | TGAGCG | 0.634 | 0.642 | 0.769 | 0.647 | 0.623 | 0.662 |
| 12 | GGTGAG | 0.34 | 0.379 | 0.436 | 0.337 | 0.338 | 0.385 |
| 17 | AGGCAT | 0.82 | 0.775 | 0.926 | 0.817 | 0.826 | 0.809 |
| 19 | CAGGTA | 0.818 | 0.725 | 0.809 | 0.77 | 0.827 | 0.869 |
